# From PubChem BioAssay AID1439 (NMMLSC, 2008)
# Chains of the proteins cited; added tags and fusions are not shown.
# UniProt P09471, whole entry, looked up: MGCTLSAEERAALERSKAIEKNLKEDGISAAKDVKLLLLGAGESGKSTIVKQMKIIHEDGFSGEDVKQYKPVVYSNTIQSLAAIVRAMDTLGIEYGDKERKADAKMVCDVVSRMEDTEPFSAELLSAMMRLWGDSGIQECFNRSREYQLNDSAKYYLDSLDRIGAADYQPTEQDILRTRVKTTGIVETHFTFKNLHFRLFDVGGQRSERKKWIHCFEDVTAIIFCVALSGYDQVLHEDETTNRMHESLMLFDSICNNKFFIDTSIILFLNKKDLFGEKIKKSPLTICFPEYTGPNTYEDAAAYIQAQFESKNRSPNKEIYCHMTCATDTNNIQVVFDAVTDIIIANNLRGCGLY
# Screen size: about 220,000 compounds; about 770 (0.35%) were called active. Inconclusive results, whose numbers are uncertain, are shown with a selection of clear calls. Cut-off read from the data, not from the text of the source: active = binding response below about 49% or above about 150%; inconclusive = no clear call, values can overlap the other calls; inactive = in between.
# Molecular target: Guanine nucleotide-binding protein G(o) subunit alpha (Homo sapiens) (UniProt P09471)
# Test: RGS7-Galphao binding modulators, primary screen, biochemical, multiplexed bead flow cytometry (AID 1439);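 note: fluorescent Galphao held in activated GDP-AlF4 state binding bead-coupled RGS7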
# Settings: at 10 µM, actives lie on both sides
row,SMILES,binding response (% of control)
1,NC(=O)CC(NC(=O)c1ccccc1)c1ccc(NC2CCCCC2)c([N+](=O)[O-])c1 (centres undefined),inconclusive: 95.3%
2,CC1=CC(c2ccccc2)n2nnnc2N1 (centres undefined),inconclusive: 96.4%
3,CCOc1ccc(N2C(=O)CC(N(Cc3ccco3)C(=O)CCC(=O)O)C2=O)cc1 (centres undefined),inactive: 99.3%
4,c1ccc2nc(-c3nccs3)ccc2c1,inconclusive: 91.3%
5,S=C(Nc1ccc(Oc2ccccc2)cc1)NC1CCCCCC1,inactive: 101%
6,COC(=O)c1c(-c2ccccc2)c[nH]c1C,inconclusive: 140%
7,Cn1c(=O)n(C)c2cc(S(=O)(=O)N3CCN(c4ccccc4)CC3)ccc21,inconclusive: 141%
8,COc1cccc(-c2nn[nH]n2)c1O,inactive: 99%
9,Cc1ccc(NC(=O)/C(C#N)=C(\N)C(Cl)(Cl)Cl)nc1,inactive: 92.5%
10,Cc1ccc(S(=O)(=O)/N=C2/C=C(Sc3ncn[nH]3)C(=O)c3ccccc32)cc1,inactive: 78.6%
11,Cc1ccnc(NS(=O)(=O)c2ccc(N3C(=O)Nc4ccccc4N3O)cc2)c1,inactive: 101%
12,O=C1CCCC(O)=C1N=Nc1ccc(C(=O)O)cc1,inconclusive: 97.2%
13,COc1cccc(NC(=S)N(Cc2ccc(Cl)cc2)Cc2ccc(C(=O)O)cc2)c1,inactive: 96.1%
14,COc1ccc(CC(=O)Nc2ccc(N3CCOCC3)cc2)cc1S(=O)(=O)N1CCOCC1,inconclusive: 90.6%
15,CCOc1ccc(CN2CCN(Cc3ccc(C)o3)CC2CCO)cc1 (centres undefined),inactive: 98.7%
16,O=[N+]([O-])c1ccc(OCc2cnc(Cl)s2)cc1,inactive: 102%
17,Cc1cc(SCC(=O)OCC(=O)c2c(N)n(C)c(=O)n(C)c2=O)c(C)cc1Br,inconclusive: 84.4%
18,CCN(CC)CCCNc1nc(C)cc(COC)c1C#N,inconclusive: 96.6%
19,O=c1[nH][nH]c2c(N=Cc3ccccc3O)ccc(F)c12,inconclusive: 54.8%
20,COc1ccccc1N(CC(O)Cn1ccnc1C)S(=O)(=O)c1ccccc1 (centres undefined),inconclusive: 88.3%
21,COc1ccc(OCCC(=O)OCC(=O)NC2CCCCCCC2)cc1,inconclusive: 111%
22,CN(C)c1ccc(C(C#N)c2ccccc2)nn1 (centres undefined),inconclusive: 107%
23,O=c1ccnc(Nc2ccc(Cl)cc2)[nH]1,inconclusive: 91.3%

row,SMILES,binding response (% of control)
1,Cc1ccc(CNC(=O)C(C)C2Sc3ccccc3NC2=O)cc1 (centres undefined),inconclusive: 97.9%
2,COCC(=O)n1nc(-c2ccccc2)nc1NCc1ccc(N(C)C)cc1,inconclusive: 96.9%
3,Cc1onc(-c2c(F)cccc2Cl)c1-c1nnc(-c2cccc3ccccc23)o1,inconclusive: -101%
4,CCCCCCCC(=O)NNC(=O)c1c(O)c2ccccc2n(CC)c1=O,inactive: 97.4%
5,Clc1ccc(-c2c[n+](Cc3ccc(Br)cc3)c3n2CCCCC3)cc1,inconclusive: 93.9%
6,Cc1ccc(OCC(=O)N2CCN(S(C)(=O)=O)CC2)cc1,inconclusive: 113%
7,COc1ccccc1Nc1nc(Cl)c(C=O)s1,inconclusive: 86%
8,COC(=O)N/N=C/c1cc(C)n(-c2ccc(Br)cc2)c1C,inconclusive: 89.6%
9,CCc1nnc(NC(=O)C2(C)COC(c3ccccc3)OC2)s1 (centres undefined),inconclusive: 113%
10,Cc1nn2c(NC(C)C)c3c(nc2c1-c1ccccc1)CCC3,inconclusive: -134%
11,COc1ccccc1-c1nnc(Sc2nc([N+](=O)[O-])nn2C)o1,inactive: 103%
12,CCN(CC(=O)Nc1ccc(C(=O)Nc2ccc(OC)cc2)cc1)Cc1nc2ccccc2c(=O)[nH]1,inconclusive: 73.5%
13,Oc1ccc(Cl)cc1C1=NNC(c2cccs2)C1 (centres undefined),inconclusive: 99.9%
14,CN(CCOc1ccc(Br)cc1)CC(=O)Nc1cccc(S(=O)(=O)NC2=NCCC2)c1,inconclusive: 108%
15,Cc1cc(Cl)c(S(=O)(=O)N2CCN(c3ccccn3)CC2)cc1OCC(=O)NC1CCCCC1,inconclusive: 92.8%
16,O=S(=O)(c1cccc2nsnc12)N1CCN(c2ncccn2)CC1,inactive: 99.9%
17,COc1ccc(Br)cc1/C=N/Nc1cccc(C(=O)O)c1,active: 172% [activator]
18,CCC(=O)N1c2ccc(S(=O)(=O)CCC(=O)Nc3nccs3)cc2CC1C (centres undefined),inactive: 100%
19,COc1ccc(C(C)=O)cc1CSc1ccccn1,inconclusive: 99.2%
20,COc1ccc(CN2C(=O)CS/C2=N/N=C/c2cccs2)cc1,inconclusive: 89.5%
21,Cc1ccc(S(=O)(=O)Nc2nc3ccccc3nc2NCC2CCCO2)cc1 (centres undefined),inconclusive: 128%
22,COc1ccc(CC(=O)OCC(=O)NCc2ccccc2Cl)cc1OC,active: 162% [activator]
23,COc1ccc(S(=O)(=O)Nc2cc(Sc3ncn[nH]3)c(O)c3ccccc23)cc1,inactive: 77.1%

row,SMILES,binding response (% of control)
1,Cc1ccc(S(=O)(=O)CC(=O)Nc2c(C)n(C)n(-c3ccccc3)c2=O)cc1,inactive: 95.9%
2,CCOC(=O)C1CCCCN1Cc1ccc(OC)c(OC)c1 (centres undefined),inconclusive: 76.8%
3,CCC1=C(OC(=O)N(CC)CC)N2C(=O)OC(=NCC3CC3)[C@]2(C)[C@H]2C1=CC[C@H]1C(=O)N(CC)C(=O)[C@H]12,inconclusive: 110%
4,CC(C)[C@H](Nc1ncnc2c1oc1ccccc12)C(=O)O,inconclusive: 130%
5,C#CCOCCOCCOCCNc1nc(N2CCN(C(=O)[C@H]([C@@H](C)CC)n3cc([C@@H](N)CO)nn3)CC2)nc(N2CCN(C(=O)[C@H](Cc3cc4ccccc4[nH]3)n3cc([C@@H](N)Cc4ccc(O)cc4)nn3)CC2)n1,inconclusive: 97.3%
6,O=C(CCn1cnc2ccccc21)N/N=C/C=C/c1ccccc1,inconclusive: 114%
7,NNC(=O)C(=O)NCCCN1CCOCC1,inactive: 101%
8,COc1ccc(/C=N/Nc2ccc(C(=O)O)cc2)cc1OC,inconclusive: 107%
9,O=S(=O)(N/N=C\c1cccnc1)c1ccccc1,inactive: 105%
10,COCCNC(=O)C1CC2Cn3c(nc4cc(C)c(C)cc43)C2N1C (centres undefined),inconclusive: 93.3%
11,COc1ccc(C2NC(=S)N3C(c4ccc(OC)cc4)NC(=S)N23)cc1 (centres undefined),inactive: 110%
12,CCC(=O)N1CCN(c2ccc(Cl)cc2NC(=O)c2ccc3c(c2)OCCO3)CC1,active: 2.03%
13,CN1CCC(N(C)C(=O)/C(C#N)=C/c2ccc(OC(F)F)cc2)CC1,inconclusive: 89.6%
14,Cc1cc(C)cc(OCC(=O)N(Cc2ccc(N(C)C)cc2)C2CCS(=O)(=O)C2)c1 (centres undefined),inconclusive: 99.7%
15,CCCSc1nc2cc(C)c(C)cc2n1CC(C)O (centres undefined),inconclusive: 91.9%
16,Cc1cc(-n2c(C)cc(C(=O)CSc3nc(N)cc(=O)[nH]3)c2C)no1,inconclusive: 123%
17,O=C(NCc1ccco1)c1cc([N+](=O)[O-])ccc1Cl,inconclusive: 102%
18,COc1ccc2[nH]c(C(=O)Nc3ccccc3Cl)cc2c1,inconclusive: 105%
19,O=c1[nH][nH]cc1C=Nc1ccc(Cl)cc1Cl,inconclusive: 133%
20,CCCNC(=O)Cn1c(=O)/c(=C\c2ccc(-c3ccc([N+](=O)[O-])cc3)o2)s/c1=C\C(=O)C(C)(C)C,inactive: 115%
21,O=C(NNS(=O)(=O)c1ccc(F)cc1)c1cnn(-c2ccccc2)c1C(F)(F)F,inconclusive: 14.1%
22,c1ccc(-c2csc3ncn4cnnc4c23)cc1,inactive: 94.5%
23,COC(=O)c1ccc(CNC(=O)COC(=O)CC23CC4CC(CC(Br)(C4)C2)C3)cc1,inactive: 103%

# Quoted at random: 4 entries already listed, in no set order.
row,SMILES,binding response (% of control)
18,CCC(=O)N1c2ccc(S(=O)(=O)CCC(=O)Nc3nccs3)cc2CC1C (centres undefined),inactive: 100%
20,COc1ccccc1N(CC(O)Cn1ccnc1C)S(=O)(=O)c1ccccc1 (centres undefined),inconclusive: 88.3%
15,CCOc1ccc(CN2CCN(Cc3ccc(C)o3)CC2CCO)cc1 (centres undefined),inactive: 98.7%
1,NC(=O)CC(NC(=O)c1ccccc1)c1ccc(NC2CCCCC2)c([N+](=O)[O-])c1 (centres undefined),inconclusive: 95.3%

# The listing continues.

row,SMILES,binding response (% of control)
1,CCN(c1ccc(OCC(=O)OCC(=O)c2c(N)n(C)c(=O)n(C)c2=O)cc1)S(=O)(=O)c1ccccc1,inconclusive: 104%
2,CC1CN(C2=NC(=O)/C(=C3/C(=O)N(Cc4ccc(F)cc4)c4ccccc43)S2)CC(C)O1 (centres undefined),inconclusive: 44.6%
3,O=C(Cc1cccc2ccccc12)N1CC[C@@]2(O)CCCC[C@H]2C1,inconclusive: 92.7%
4,C=CCn1c(C)nnc1SCC(=O)c1[nH]c(C)c(C(C)=O)c1C,inconclusive: 104%
5,CCC(CC)C(=O)NN(C(=O)c1ccncc1)C1CC(=O)N(c2ccccc2)C1=O (centres undefined),inconclusive: 82.1%
6,COc1ccc(NC(=O)CSc2nc(O)cc(=O)[nH]2)c(OC)c1,inconclusive: 98.9%
7,O=C(O)c1cccc(S(=O)(=O)Nc2ccc3[nH]c(=O)[nH]c3c2)c1,inconclusive: 117%
8,Cc1ccc(Cl)cc1NC(=S)N(Cc1cccs1)C1CCCC1,inconclusive: 95.2%
9,CC1(C)Cc2nc3oc4c(=O)n(CC(=O)Nc5cccc(Cl)c5)cnc4c3cc2CO1,inconclusive: 83.1%
10,CCOC(=O)c1cn(CC)c2cc(F)c(F)cc2c1=O,inconclusive: 107%
11,Cc1ccc(NC(=O)C(=O)NCCCN2CCOCC2)c(C)c1,inconclusive: 102%
12,CSCC[C@H](NC(=O)OC(C)(C)C)C(=O)N/N=C/c1cccc2cccnc12,inconclusive: 238%
13,O=C1OCC=C1NNC(=O)c1cccnc1,inconclusive: 98.7%
14,COC(=O)c1nn(-c2ccc(C)cc2)ccc1=O,inconclusive: 117%
15,O=C(O)COCC(=O)NCc1nc(-c2ccc(C(F)(F)F)cc2)no1,inconclusive: 92.4%
16,Cn1cnc([N+](=O)[O-])c1Cl,inconclusive: 18.3%
17,O=C(O)/C=C/c1cn(-c2ccccc2)nc1-c1cc2ccccc2oc1=O,inconclusive: 109%
18,COc1ccc(OC)c(C2C(C(=O)Nc3nc4ccccc4s3)=C(C)NC3=C2C(=O)CCC3)c1 (centres undefined),inactive: 100%
19,O=C(O)c1cc(-c2ccc(Cl)s2)[nH]n1,inconclusive: 75.7%
20,Cc1c(C#N)c2ccccc2n1C,inconclusive: 106%
